Experimental data: patent US20250009739A1, “METHOD OF TREATING A SKIN DISORDER” (PHAMRI Norden AB, priority 2021, published 2025)
At least one compound was matched to its structure with a doubt left.

Legend:
ENaC [1] = conditions: cited from earlier work
IL1a = IL1a expression in TNFα-stimulated primary keratinocytes (Luminex on supernatant); type: cell-based, human; conditions: primary keratinocytes stimulated with TNFα (5 ng/ml) for 24 hours, dose-dependent, FIG. 4
CXCL1 = CXCL1 expression in TNFα-stimulated primary keratinocytes (Luminex on supernatant); type: cell-based, human; conditions: primary keratinocytes stimulated with TNFα (5 ng/ml) for 24 hours, dose-dependent, FIG. 3
Procedure: Primary keratinocytes were stimulated with TNFα (5 ng/ml) for 24 hours and expression of pro-inflammatory cytokines involved in inflammatory skin disease was analyzed with benzamil as inhibitor and compared to inhibitors with different affinity to ENaC/NCX1/NHE1 (amiloride), ENaC but not NCX1 and NHE1 (Camostat mesilate), NCX1 but not ENaC or NHE1 (KB-R7943) or NHE but not ENaC or NCX1 (zoniporide).
Primary human keratinocytes were thawed according to manufacturer's instructions, washed in growth medium (GM) and viability assessed via Tryphan blue. Cells were incubated at 37° C. with 5% CO2. After confluence, a stock cell solution of 1.5×10^5 cells/ml was prepared in GM. 200 μL of the cell suspension was added to each well of respective 96 well plates for a total of 3×10^4 cells/well. Cells were incubated at 37° C. with 5% CO2 overnight for adherence. After overnight incubation, cell culture media was removed from each well and 100 μL of fresh GM was added to each well. Appropriate concentrations of inhibitor compound, vehicle and TNFα was prepared in GM of a final volume of 3 ml. […]
100 μl of each treatment was added to appropriate wells. […] 24 hours post TNFα stimulation, the fluorescence of each well was read at 544/590 nm for cell viability. […] The inflammatory cytokines TNFα, CXCL1 and IL1a in the cell culture supernatants were analysed by Luiminex. […]

TNFα = TNFα expression in TNFα-stimulated primary keratinocytes (Luminex on supernatant); type: cell-based, human; conditions: primary keratinocytes stimulated with TNFα (5 ng/ml) for 24 hours, dose-dependent, FIG. 5
ENaC [2] = molecular target: T1, ENaC (Homo sapiens, UniProt P37088+P51168+P51170); conditions: cited from earlier work
T1 sequence (P37088 1-669): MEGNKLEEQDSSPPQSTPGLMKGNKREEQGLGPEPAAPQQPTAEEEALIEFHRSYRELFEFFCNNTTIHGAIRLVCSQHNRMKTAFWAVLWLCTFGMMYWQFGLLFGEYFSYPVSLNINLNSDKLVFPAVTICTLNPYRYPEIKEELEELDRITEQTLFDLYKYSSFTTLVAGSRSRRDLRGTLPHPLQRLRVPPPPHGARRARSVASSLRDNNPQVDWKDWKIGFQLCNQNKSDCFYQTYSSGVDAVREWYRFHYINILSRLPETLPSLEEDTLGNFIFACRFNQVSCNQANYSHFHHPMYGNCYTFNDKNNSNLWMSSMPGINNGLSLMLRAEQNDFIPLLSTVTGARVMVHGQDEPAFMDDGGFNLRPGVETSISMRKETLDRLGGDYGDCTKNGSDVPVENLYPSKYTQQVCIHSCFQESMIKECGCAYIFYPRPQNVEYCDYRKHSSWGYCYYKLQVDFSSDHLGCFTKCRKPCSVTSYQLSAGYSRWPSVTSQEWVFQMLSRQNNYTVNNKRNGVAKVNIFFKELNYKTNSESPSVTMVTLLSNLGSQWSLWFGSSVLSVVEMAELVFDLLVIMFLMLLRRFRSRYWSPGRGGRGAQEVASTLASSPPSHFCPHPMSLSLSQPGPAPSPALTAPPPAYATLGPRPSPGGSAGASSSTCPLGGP
T1 sequence (P51168 1-640): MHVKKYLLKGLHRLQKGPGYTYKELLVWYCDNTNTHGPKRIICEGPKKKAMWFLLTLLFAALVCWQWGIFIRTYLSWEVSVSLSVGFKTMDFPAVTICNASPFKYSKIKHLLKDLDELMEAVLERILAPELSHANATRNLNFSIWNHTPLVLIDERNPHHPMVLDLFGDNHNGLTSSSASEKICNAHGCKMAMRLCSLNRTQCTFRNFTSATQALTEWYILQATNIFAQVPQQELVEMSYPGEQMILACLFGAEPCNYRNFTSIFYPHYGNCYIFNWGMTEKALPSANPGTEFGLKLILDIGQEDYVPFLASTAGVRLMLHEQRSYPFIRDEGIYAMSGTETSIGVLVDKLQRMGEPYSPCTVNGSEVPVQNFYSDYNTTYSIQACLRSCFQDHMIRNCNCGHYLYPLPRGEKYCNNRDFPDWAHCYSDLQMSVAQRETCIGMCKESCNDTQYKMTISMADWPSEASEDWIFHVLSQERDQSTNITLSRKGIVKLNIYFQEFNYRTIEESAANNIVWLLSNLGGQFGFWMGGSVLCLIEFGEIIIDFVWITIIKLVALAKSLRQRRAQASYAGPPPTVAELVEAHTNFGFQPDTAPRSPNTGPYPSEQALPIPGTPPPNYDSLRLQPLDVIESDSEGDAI
T1 sequence (P51170 1-649): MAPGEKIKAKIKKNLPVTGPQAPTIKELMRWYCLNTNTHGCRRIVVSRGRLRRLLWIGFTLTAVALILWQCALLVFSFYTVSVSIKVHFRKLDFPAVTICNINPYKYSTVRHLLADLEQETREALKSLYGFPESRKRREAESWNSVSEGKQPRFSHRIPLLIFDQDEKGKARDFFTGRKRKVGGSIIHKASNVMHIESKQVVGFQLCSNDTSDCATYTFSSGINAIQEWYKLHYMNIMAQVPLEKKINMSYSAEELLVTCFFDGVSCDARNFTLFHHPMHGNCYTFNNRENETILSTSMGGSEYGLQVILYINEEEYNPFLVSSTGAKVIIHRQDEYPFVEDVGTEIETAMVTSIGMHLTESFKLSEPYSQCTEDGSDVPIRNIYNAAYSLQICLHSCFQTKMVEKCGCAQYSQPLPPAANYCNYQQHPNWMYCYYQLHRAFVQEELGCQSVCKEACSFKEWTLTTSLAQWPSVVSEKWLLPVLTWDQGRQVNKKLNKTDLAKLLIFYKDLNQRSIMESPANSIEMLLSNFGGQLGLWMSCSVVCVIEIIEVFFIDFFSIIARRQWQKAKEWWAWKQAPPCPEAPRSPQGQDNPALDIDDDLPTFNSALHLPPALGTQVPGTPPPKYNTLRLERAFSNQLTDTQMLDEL

## NC(=NCc1ccccc1)NC(=O)c1nc(Cl)c(N)nc1N [benzamil]
ENaC [1]
  in vivo efficacy specifically on ENaC relative to amiloride: equivalent to amiloride
IL1a
  expression of IL1a: reduces expression
IL1a; listed as Benzamil
  expression of IL1a: reduce expression
CXCL1
  expression of CXCL1: reduces expression
CXCL1; listed as Benzamil
  expression of CXCL1: reduce expression
TNFα
  expression of TNFα: reduces expression
TNFα; listed as Benzamil
  expression of TNFα: reduce expression
ENaC [2]
  ENaC inhibitor potency in vitro relative to amiloride: more potent
